# Assay results from patent US20220275081A1.
# Numbering of substitutions follows the chain as printed. No constants are given. Whether binding was seen depends on the method and setting. Some binding calls cover weakened binding; strength is not graded here.
# T1: Lrig-1 protein expressed on the surface of L cells (leucine-rich and immunoglobulin-like domains 1) (human) (UniProt Q96JA1)
# T1 sequence: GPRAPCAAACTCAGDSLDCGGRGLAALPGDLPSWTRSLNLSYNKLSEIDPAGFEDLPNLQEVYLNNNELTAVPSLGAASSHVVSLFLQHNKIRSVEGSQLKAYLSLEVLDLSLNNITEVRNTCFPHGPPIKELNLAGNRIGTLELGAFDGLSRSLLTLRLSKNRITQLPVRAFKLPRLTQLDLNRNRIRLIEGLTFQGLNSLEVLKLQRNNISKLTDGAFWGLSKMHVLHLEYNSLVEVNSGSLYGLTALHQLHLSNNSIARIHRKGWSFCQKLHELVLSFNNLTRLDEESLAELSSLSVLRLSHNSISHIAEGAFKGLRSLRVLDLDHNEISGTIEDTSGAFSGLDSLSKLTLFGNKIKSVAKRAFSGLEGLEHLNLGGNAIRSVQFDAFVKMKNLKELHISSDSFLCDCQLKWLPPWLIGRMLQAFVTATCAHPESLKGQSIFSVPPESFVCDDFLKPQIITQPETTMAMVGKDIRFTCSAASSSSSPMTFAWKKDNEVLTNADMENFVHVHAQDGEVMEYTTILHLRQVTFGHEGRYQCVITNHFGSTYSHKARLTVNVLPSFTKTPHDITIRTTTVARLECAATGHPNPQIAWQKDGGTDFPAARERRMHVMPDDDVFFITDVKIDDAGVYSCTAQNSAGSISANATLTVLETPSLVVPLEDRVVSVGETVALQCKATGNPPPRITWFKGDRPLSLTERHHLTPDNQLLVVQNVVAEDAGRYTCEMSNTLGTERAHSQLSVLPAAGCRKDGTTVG
# B1: B8 clone (Production Example 6), Lrig-1 protein-specific monoclonal antibody (antibody, mouse IgG2a, V domains shown)
# VH: EVQLLESGGGLVQPGGSLRLSCAASGFTFSDYYMSWVRQAPGKGLEWVSGISHDSGSKYYADSVKGRFTISRDNSKNTLYLQMNSLRAEDTAVYYCARHWTTFDYWGQGTLVTVSS
# VL: QSVLTQPPSASGTPGQRVTISCSGSSSNIGSNNVTWYQQLPGTAPKLLIYANSNRPSGVPDRFSGSKSGTSASLAISGLRSEDEADYYCGAWDYSLSAYVFGGGTKLTVLR
# B2: H6 clone (Production Example 8), Lrig-1 protein-specific monoclonal antibody (antibody, mouse IgG2a, V domains shown)
# VH: EVQLLESGGGLVQPGGSLRLSCAASGFTFSNYAMSWVRQAPGKGLEWVSVISHGGGSTYYADSVKGRFTISRDNSKNTLYLQMNSLRAEDTAVYYCARVISNCHLGVCYYSNGMDVWGQGTLVTVSS
# VL: B1 VL with S31N, N33D, T35Y, A51S, N52D, N54Q, A91T, A98G
# B3: D9 clone (Production Example 7), Lrig-1 protein-specific monoclonal antibody (antibody, mouse IgG2a, V domains shown)
# VH: EVQLLESGGGLVQPGGSLRLSCAASGFTFSNYAMSWVRQAPGKGLEWVSAIYPGGGSIYYADSVKGRFTISRDNSKNTLYLQMNSLRAEDTAVYYCARDILPCPWGRCYYDYAMDVWGQGTLVTVSS
# VL: B1 VL with G24D, N33T, T35S, N52D, S53N, A91T, A98G
# Molecular target: T1, Lrig-1 protein expressed on the surface of L cells (leucine-rich and immunoglobulin-like domains 1) (human)
# Test: FACS on L cells stably expressing Lrig-1, eFluor 670 anti-mouse secondary antibody
row,binding,Binder
1,binds,B1
2,binds,B2
3,binds,B3
